{"source": "PubChem BioAssay AID743454, Peter MacCallum Cancer Centre, 2014", "assay": "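Genes whose loss kills vorinostat-resistant colon cancer cells under vorinostat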 (primary screen)", "system": "human HCT116-VR colon cancer cells, selected for vorinostat resistance", "reagent": "siRNA pool against human genes, 40 nM siRNA pool", "timing": "vorinostat for 24 h, read-out about 72 h after transfection", "challenge": "vorinostat at 2.5 µM final", "measured": "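Two measures, CellTiter-Fluor viability and luminescent caspase 3/7 activity, each as fold change against same-plate mock wells, mean of duplicates, then screen-wide robust z-score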", "scale": "viability robust z-score: higher = more viable cells than screen typical; caspase robust z-score: higher = more caspase 3/7 activity than screen typical", "rule for the call": "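a knock-down is a hit when classed RV1 or RV2 for lowered viability, or CA1 or CA2 for caspase activation; those lethal without drug were dropped; hits were retested singly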", "note": "Here is a random part of about 18,000 deposited reagents. Of all reagents, 450 (2.5%) got an active call. 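Single biological run; no consistent viability z cut-off exists, so the class columns, not z-scores, define the calls.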 A number with no mark means an inactive call. Reagent sequences are not shown."}
{"target": "FNIP1 (folliculin interacting protein 1)", "viability hit class": "no change", "caspase hit class": "no change", "viability robust z-score": 0.5, "caspase robust z-score": 0.13}
{"target": "CEP83 (centrosomal protein 83)", "viability hit class": "no change", "caspase hit class": "no change", "viability robust z-score": 0.15, "caspase robust z-score": 2.17}
{"target": "DEFB130A (defensin beta 130A)", "viability hit class": "no change", "caspase hit class": "no change", "viability robust z-score": -0.38, "caspase robust z-score": -0.07}
{"target": "TAS1R1 (taste 1 receptor member 1)", "viability hit class": "no change", "caspase hit class": "no change", "viability robust z-score": 1.15, "caspase robust z-score": -0.44}
{"target": "RRP12 (ribosomal RNA processing 12 homolog)", "viability hit class": "no change", "caspase hit class": "no change", "viability robust z-score": -1.83, "caspase robust z-score": 0.48}
{"target": "RAPGEF4 (Rap guanine nucleotide exchange factor 4)", "viability hit class": "no change", "caspase hit class": "no change", "viability robust z-score": 1.42, "caspase robust z-score": 0.03}
{"target": "TMEM207 (transmembrane protein 207)", "viability hit class": "no change", "caspase hit class": "no change", "viability robust z-score": -0.69, "caspase robust z-score": -0.56}
{"target": "RAB12 (RAB12, member RAS oncogene family)", "viability hit class": "no change", "caspase hit class": "no change", "viability robust z-score": 0.5, "caspase robust z-score": 0.2}
{"target": "C12orf57 (chromosome 12 open reading frame 57)", "viability hit class": "no change", "caspase hit class": "no change", "viability robust z-score": 1.58, "caspase robust z-score": 1.44}
{"target": "KRABD4 (KRAB domain containing 4)", "viability hit class": "no change", "caspase hit class": "no change", "viability robust z-score": 1.35, "caspase robust z-score": -0.44}
{"target": "CP (ceruloplasmin)", "viability hit class": "no change", "caspase hit class": "no change", "viability robust z-score": 1, "caspase robust z-score": -0.68}
{"target": "GMCL1 (germ cell-less 1, spermatogenesis associated)", "viability hit class": "no change", "caspase hit class": "no change", "viability robust z-score": 1.09, "caspase robust z-score": -0.44}

2 consecutive reagents already listed, quoted:
{"target": "KRABD4 (KRAB domain containing 4)", "viability hit class": "no change", "caspase hit class": "no change", "viability robust z-score": 1.35, "caspase robust z-score": -0.44}
{"target": "CP (ceruloplasmin)", "viability hit class": "no change", "caspase hit class": "no change", "viability robust z-score": 1, "caspase robust z-score": -0.68}
